# According to patent publication US9533937B2, “Use of metal scavengers for removal of ruthenium residues” (Apeiron Synthesis S.A., priority 2013, dated 2017):
# How the values were obtained:
# [1] = cited from earlier work
# [2] = Removal of ruthenium residues from post-reaction mixtures with metal scavengers, filtration through silica gel; Ru content by ICP-MS
smiles,measurement,setting,value
OCP(CO)CO,Ru contamination of the product,"[1]; scavenger 430 mol %, 0.16 hours, adding SiO2, filtration",206 ppm
same,Ru contamination of the product,"[1]; scavenger 430 mol %, 0.16 hours, purification by extraction",670 ppm
O=P(c1ccccc1)(c1ccccc1)c1ccccc1,Ru contamination of the product,"[1]; scavenger 250 mol %, 12 hours, chromatography over SiO2",240 ppm
[C-]#[N+]CCN1CCOCC1,Ru contamination of the product,"[2]; Table 2 reaction, scavenger 4.4 mol %, 22 °C, CH2Cl2",17 ppm
same,Ru contamination of the product,"[2]; Table 2 reaction, scavenger 8.8 mol %, 22 °C, CH2Cl2",11 ppm
[C-]#[N+]CC(=O)[O-].[K+] [CNCH2CO2K],Ru contamination of the product,"[2]; Table 3, (pre)catalyst drawing 20, scavenger 8.8 mol %",142 ppm
same,Ru contamination of the product,"[2]; Table 3, (pre)catalyst drawing 21, scavenger 8.8 mol %",251 ppm
same,Ru contamination of the product,"[2]; Table 3, (pre)catalyst drawing 22, scavenger 8.8 mol %",159 ppm
same,Ru contamination of the product,"[2]; Table 3, (pre)catalyst drawing 23, scavenger 8.8 mol %",370 ppm
same,Ru contamination of the product,"[2]; Table 4 reaction, scavenger 8.8 % mol, 70 °C, toluene",189 ppm

# Like-named read-outs stand apart in the source and are kept apart here.
